Reference: article PMC9663509
Results are given in words; binding and its absence hold for the method and conditions named. Binding seen in cells or lysates may run through a third protein. Some results given as binding are weak or reduced against the parent protein; the word gives no strength.

Sequences of proteins named here, by UniProt entry; tags and fusion partners are left off.
UniProt Q07912: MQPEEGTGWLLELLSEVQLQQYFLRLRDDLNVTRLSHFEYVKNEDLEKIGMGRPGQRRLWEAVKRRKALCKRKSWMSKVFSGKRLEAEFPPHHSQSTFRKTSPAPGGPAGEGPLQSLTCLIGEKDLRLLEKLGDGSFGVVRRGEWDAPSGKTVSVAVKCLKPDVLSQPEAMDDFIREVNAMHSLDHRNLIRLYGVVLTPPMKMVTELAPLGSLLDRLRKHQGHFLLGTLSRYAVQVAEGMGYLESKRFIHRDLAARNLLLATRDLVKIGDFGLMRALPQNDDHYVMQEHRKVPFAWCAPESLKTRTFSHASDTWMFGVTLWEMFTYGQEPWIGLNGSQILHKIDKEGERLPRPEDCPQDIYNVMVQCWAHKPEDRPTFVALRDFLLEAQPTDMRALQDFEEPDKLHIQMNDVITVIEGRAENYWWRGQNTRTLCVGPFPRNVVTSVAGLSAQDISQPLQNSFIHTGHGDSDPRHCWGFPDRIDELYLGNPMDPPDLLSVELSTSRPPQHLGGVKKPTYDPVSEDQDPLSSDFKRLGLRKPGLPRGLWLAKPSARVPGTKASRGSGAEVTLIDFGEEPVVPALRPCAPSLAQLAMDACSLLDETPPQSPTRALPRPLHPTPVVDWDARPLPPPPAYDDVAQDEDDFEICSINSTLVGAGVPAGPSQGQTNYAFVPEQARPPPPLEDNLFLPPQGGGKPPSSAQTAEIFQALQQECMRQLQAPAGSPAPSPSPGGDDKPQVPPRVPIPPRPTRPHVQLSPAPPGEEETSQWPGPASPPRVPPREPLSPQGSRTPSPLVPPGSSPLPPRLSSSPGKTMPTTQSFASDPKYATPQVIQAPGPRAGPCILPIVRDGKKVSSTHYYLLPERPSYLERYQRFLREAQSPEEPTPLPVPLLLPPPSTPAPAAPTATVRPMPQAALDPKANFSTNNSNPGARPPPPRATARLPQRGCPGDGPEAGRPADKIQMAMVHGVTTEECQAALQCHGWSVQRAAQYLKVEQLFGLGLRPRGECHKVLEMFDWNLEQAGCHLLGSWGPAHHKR
UniProt O54967: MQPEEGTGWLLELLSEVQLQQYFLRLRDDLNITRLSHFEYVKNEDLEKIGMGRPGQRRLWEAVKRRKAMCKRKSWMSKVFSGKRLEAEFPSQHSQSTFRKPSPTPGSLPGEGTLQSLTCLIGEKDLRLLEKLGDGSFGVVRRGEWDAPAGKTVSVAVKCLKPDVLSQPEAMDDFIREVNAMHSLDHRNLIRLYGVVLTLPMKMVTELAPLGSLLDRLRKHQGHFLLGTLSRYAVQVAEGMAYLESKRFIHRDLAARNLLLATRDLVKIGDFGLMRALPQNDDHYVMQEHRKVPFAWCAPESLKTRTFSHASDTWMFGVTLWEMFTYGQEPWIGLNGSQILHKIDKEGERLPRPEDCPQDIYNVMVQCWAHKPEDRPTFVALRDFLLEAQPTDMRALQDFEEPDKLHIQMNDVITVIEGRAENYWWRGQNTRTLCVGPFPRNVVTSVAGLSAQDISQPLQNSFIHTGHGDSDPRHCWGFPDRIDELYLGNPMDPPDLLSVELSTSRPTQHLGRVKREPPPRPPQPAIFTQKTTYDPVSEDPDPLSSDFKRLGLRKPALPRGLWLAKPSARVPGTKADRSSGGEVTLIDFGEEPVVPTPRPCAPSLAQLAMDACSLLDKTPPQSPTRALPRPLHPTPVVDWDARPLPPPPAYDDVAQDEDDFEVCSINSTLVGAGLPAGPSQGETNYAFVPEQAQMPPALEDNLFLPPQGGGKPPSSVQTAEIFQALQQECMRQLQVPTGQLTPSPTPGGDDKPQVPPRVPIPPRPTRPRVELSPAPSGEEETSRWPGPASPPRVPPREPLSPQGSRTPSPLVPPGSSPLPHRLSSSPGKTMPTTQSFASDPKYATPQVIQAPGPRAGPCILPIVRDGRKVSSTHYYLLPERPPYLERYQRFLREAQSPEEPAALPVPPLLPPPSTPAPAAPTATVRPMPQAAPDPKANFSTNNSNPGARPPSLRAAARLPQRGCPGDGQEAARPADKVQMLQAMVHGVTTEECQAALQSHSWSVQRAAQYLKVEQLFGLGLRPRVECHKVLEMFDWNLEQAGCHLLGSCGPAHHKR
UniProt P41240: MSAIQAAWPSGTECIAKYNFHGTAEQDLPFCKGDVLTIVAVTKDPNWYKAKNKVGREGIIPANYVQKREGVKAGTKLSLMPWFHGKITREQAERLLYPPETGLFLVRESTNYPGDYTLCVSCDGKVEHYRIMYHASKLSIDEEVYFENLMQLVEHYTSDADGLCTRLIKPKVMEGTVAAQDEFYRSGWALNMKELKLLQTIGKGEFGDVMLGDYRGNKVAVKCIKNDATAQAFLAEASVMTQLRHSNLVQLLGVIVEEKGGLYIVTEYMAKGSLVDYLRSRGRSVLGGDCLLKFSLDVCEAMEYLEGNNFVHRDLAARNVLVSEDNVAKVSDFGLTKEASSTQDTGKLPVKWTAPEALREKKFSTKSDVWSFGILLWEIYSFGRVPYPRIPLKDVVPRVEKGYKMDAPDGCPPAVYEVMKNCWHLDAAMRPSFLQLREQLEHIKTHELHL
UniProt Q61188: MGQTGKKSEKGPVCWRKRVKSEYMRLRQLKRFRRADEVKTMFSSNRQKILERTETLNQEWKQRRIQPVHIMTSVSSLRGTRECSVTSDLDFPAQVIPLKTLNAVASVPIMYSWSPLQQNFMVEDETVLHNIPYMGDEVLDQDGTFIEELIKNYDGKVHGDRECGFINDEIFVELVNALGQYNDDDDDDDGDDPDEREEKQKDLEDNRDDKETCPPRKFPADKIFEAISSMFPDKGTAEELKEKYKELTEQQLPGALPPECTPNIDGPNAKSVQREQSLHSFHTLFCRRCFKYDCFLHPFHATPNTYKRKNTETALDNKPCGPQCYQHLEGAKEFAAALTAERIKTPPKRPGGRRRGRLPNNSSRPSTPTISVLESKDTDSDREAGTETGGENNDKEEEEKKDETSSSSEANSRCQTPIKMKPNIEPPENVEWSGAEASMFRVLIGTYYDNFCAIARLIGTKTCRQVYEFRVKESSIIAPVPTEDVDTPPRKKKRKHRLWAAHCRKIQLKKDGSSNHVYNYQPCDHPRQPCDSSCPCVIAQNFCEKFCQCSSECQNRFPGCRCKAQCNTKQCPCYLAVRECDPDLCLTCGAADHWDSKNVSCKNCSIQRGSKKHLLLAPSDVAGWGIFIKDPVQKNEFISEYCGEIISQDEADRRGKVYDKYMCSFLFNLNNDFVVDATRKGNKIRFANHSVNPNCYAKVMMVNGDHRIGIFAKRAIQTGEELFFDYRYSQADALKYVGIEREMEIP

Tests used:
[1] = biological target: Activated CDC42 kinase 1 (ACK1), full-length, HA-tagged (UniProt Q07912); experiment: co-IP; HEK293T co-transfected with FLAG-CSK and HA-ACK1 or HA-cACK1; MG132 25 uM, 3 hr; lysates immunoprecipitated with HA beads, immunoblotted with FLAG antibodies
[2] = biological target: ACK1, endogenous in TRAMP-C2 cells (mouse (endogenous in TRAMP-C2)) (UniProt O54967); experiment: co-IP; endogenous proteins; C4-2B and TRAMP-C2 cells treated with vehicle (DMSO) or (R)-9b; lysates immunoprecipitated with ACK1 or EZH2 antibody, immunoblotted

| Substance | binding [1] | binding [2] |
| --- | --- | --- |
| C-terminal Src kinase (CSK), FLAG-tagged (from UniProt P41240 1-450) (enzyme) | binds |  |
| EZH2, endogenous in TRAMP-C2 cells (from UniProt Q61188 1-746) (enzyme) |  | binds |
